# The list shows a part of the results.
# B1: Epa11 (Candida glabrata) (protein)
# chain: MGSSHHHHHHSSGLVPRGSHMASSNAPNYPVGCSPSVGTQLTPGLSLEVYAYPMDGNNGYCWNATYKDPEFPRSGYLKNKLLGKADGVVGPLNFLAKNKDCSPKVDTLPAGFNFPQPITVTNFTMVLFGYLAPKQSGKYTFKLLADDLLLLNLGATNAFDCCNREATKNNLGEFLAYNLWPNQDKNVTVYLEKGVYYPLRLFFNNRDGGSQLDFSYYFNDSPAPLTDFSGMFFSVPDGAECPARI
# Tests used:
# Assay in all cases: glycan array binding signal (z-score within array); higher = stronger binding
# Conditions in all cases: glycan notation: IUPAC condensed, linker removed
# [1] = target: Gal(b1-4)GlcNAc(b1-3)Gal(b1-4)GlcNAc(b1-2)Man(a1-3)[Gal(b1-4)GlcNAc(b1-3)Gal(b1-4)GlcNAc(b1-2)Man(a1-6)]Man(b1-4)GlcNAc(b1-4)[Fuc(a1-6)]GlcNAc
# Outline: (§1)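 Arrays were curated from the Consortium for Functional Glycomics database, 3228 in total, and kept only where the protein sequence was available. Binding is expressed as a within-array Z-score. This score was averaged across arrays of the same protein sequence at different concentrations or buffers and across linkers, and negative values can be read as non-binding.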
# [2] = target: Gal(b1-4)GlcNAc(b1-3)Gal(b1-4)GlcNAc(b1-2)[Gal(b1-4)GlcNAc(b1-3)Gal(b1-4)GlcNAc(b1-6)]Man(a1-6)[Gal(b1-4)GlcNAc(b1-3)Gal(b1-4)GlcNAc(b1-2)Man(a1-3)]Man(b1-4)GlcNAc(b1-4)GlcNAc
# Outline: as §1
# [3] = target: Gal(b1-4)GlcNAc(b1-3)Gal(b1-4)GlcNAc(b1-2)[Gal(b1-4)GlcNAc(b1-3)Gal(b1-4)GlcNAc(b1-6)]Man(a1-6)[Gal(b1-4)GlcNAc(b1-3)Gal(b1-4)GlcNAc(b1-2)Man(a1-3)]Man(b1-4)GlcNAc(b1-4)[Fuc(a1-6)]GlcNAc
# Outline: as §1
# [4] = target: Gal(b1-4)GlcNAc(b1-3)Gal(b1-4)GlcNAc(b1-3)Gal(b1-4)GlcNAc
# Outline: as §1
# [5] = target: Gal(b1-4)GlcNAc(b1-3)Gal(b1-4)GlcNAc(b1-3)Gal(b1-4)GlcNAc(b1-2)Man(a1-3)[Gal(b1-4)GlcNAc(b1-3)Gal(b1-4)GlcNAc(b1-3)Gal(b1-4)GlcNAc(b1-2)Man(a1-6)]Man(b1-4)GlcNAc(b1-4)GlcNAc
# Outline: as §1
# [6] = target: Gal(b1-4)GlcNAc(b1-3)Gal(b1-4)GlcNAc(b1-3)Gal(b1-4)GlcNAc(b1-2)Man(a1-3)[Gal(b1-4)GlcNAc(b1-3)Gal(b1-4)GlcNAc(b1-3)Gal(b1-4)GlcNAc(b1-2)Man(a1-6)]Man(b1-4)GlcNAc(b1-4)[Fuc(a1-6)]GlcNAc
# Outline: as §1
# [7] = target: Gal(b1-4)GlcNAc(b1-3)Gal(b1-4)GlcNAc(b1-3)Gal(b1-4)GlcNAc(b1-2)[Gal(b1-4)GlcNAc(b1-3)Gal(b1-4)GlcNAc(b1-3)Gal(b1-4)GlcNAc(b1-6)]Man(a1-6)[Gal(b1-4)GlcNAc(b1-3)Gal(b1-4)GlcNAc(b1-3)Gal(b1-4)GlcNAc(b1-2)Man(a1-3)]Man(b1-4)GlcNAc(b1-4)[Fuc(a1-6)]GlcNAc
# Outline: as §1
# [8] = target: Gal(b1-4)GlcNAc(b1-3)Gal(b1-4)GlcNAc(b1-3)Gal(b1-4)GlcNAc(b1-3)Gal(b1-4)GlcNAc(b1-2)Man(a1-3)[Gal(b1-4)GlcNAc(b1-3)Gal(b1-4)GlcNAc(b1-3)Gal(b1-4)GlcNAc(b1-3)Gal(b1-4)GlcNAc(b1-2)Man(a1-6)]Man(b1-4)GlcNAc(b1-4)GlcNAc
# Outline: as §1
# [9] = target: Gal(b1-4)GlcNAc(b1-3)Gal(b1-4)GlcNAc(b1-3)Gal(b1-4)GlcNAc(b1-3)Gal(b1-4)GlcNAc(b1-2)Man(a1-3)[Gal(b1-4)GlcNAc(b1-3)Gal(b1-4)GlcNAc(b1-3)Gal(b1-4)GlcNAc(b1-3)Gal(b1-4)GlcNAc(b1-2)Man(a1-6)]Man(b1-4)GlcNAc(b1-4)[Fuc(a1-6)]GlcNAc
# Outline: as §1
# [10] = target: Gal(b1-4)GlcNAc(b1-3)Gal(b1-4)GlcNAc(b1-3)Gal(b1-4)GlcNAc(b1-3)Gal(b1-4)GlcNAc(b1-2)[Gal(b1-4)GlcNAc(b1-3)Gal(b1-4)GlcNAc(b1-3)Gal(b1-4)GlcNAc(b1-3)Gal(b1-4)GlcNAc(b1-6)]Man(a1-6)[Gal(b1-4)GlcNAc(b1-3)Gal(b1-4)GlcNAc(b1-3)Gal(b1-4)GlcNAc(b1-3)Gal(b1-4)GlcNAc(b1-2)Man(a1-3)]Man(b1-4)GlcNAc(b1-4)[Fuc(a1-6)]GlcNAc
# Outline: as §1
# [11] = target: Gal(b1-4)GlcNAc(b1-3)Gal(b1-4)GlcNAc(b1-3)Gal(b1-4)GlcNAc(b1-3)Gal(b1-4)GlcNAc(b1-3)Gal(b1-4)GlcNAc(b1-2)Man(a1-3)[Gal(b1-4)GlcNAc(b1-3)Gal(b1-4)GlcNAc(b1-3)Gal(b1-4)GlcNAc(b1-3)Gal(b1-4)GlcNAc(b1-3)Gal(b1-4)GlcNAc(b1-2)Man(a1-6)]Man(b1-4)GlcNAc(b1-4)GlcNAc
# Outline: as §1
# [12] = target: Gal(b1-4)GlcNAc(b1-3)Gal(b1-4)GlcNAc(b1-3)Gal(b1-4)GlcNAc(b1-3)Gal(b1-4)GlcNAc(b1-3)Gal(b1-4)GlcNAc(b1-2)Man(a1-3)[Gal(b1-4)GlcNAc(b1-3)Gal(b1-4)GlcNAc(b1-3)Gal(b1-4)GlcNAc(b1-3)Gal(b1-4)GlcNAc(b1-3)Gal(b1-4)GlcNAc(b1-2)Man(a1-6)]Man(b1-4)GlcNAc(b1-4)[Fuc(a1-6)]GlcNAc
# Outline: as §1
# [13] = target: Gal(b1-4)GlcNAc(b1-3)Gal(b1-4)GlcNAc(b1-3)Gal(b1-4)GlcNAc(b1-3)Gal(b1-4)GlcNAc(b1-3)Gal(b1-4)GlcNAc(b1-2)[Gal(b1-4)GlcNAc(b1-3)Gal(b1-4)GlcNAc(b1-3)Gal(b1-4)GlcNAc(b1-3)Gal(b1-4)GlcNAc(b1-3)Gal(b1-4)GlcNAc(b1-6)]Man(a1-6)[Gal(b1-4)GlcNAc(b1-3)Gal(b1-4)GlcNAc(b1-3)Gal(b1-4)GlcNAc(b1-3)Gal(b1-4)GlcNAc(b1-3)Gal(b1-4)GlcNAc(b1-2)Man(a1-3)]Man(b1-4)GlcNAc(b1-4)[Fuc(a1-6)]GlcNAc
# Outline: as §1
# [14] = target: Gal(b1-4)GlcNAc(b1-3)Gal(b1-4)GlcNAc(b1-3)Gal(b1-4)GlcNAc(b1-3)Gal(b1-4)GlcNAc(b1-3)Gal(b1-4)GlcNAc(b1-3)Gal(b1-4)GlcNAc(b1-2)Man(a1-3)[Gal(b1-4)GlcNAc(b1-3)Gal(b1-4)GlcNAc(b1-3)Gal(b1-4)GlcNAc(b1-3)Gal(b1-4)GlcNAc(b1-3)Gal(b1-4)GlcNAc(b1-3)Gal(b1-4)GlcNAc(b1-2)Man(a1-6)]Man(b1-4)GlcNAc(b1-4)GlcNAc
# Outline: as §1
# [15] = target: Gal(b1-4)GlcNAc(b1-3)Gal(b1-4)GlcNAc(b1-3)GalNAc
# Outline: as §1
# [16] = target: Gal(b1-4)GlcNAc(b1-3)Gal(b1-4)GlcNAc(b1-3)[Gal(b1-4)GlcNAc(b1-3)Gal(b1-4)GlcNAc(b1-6)]GalNAc
# Outline: as §1
# [17] = target: Gal(b1-4)GlcNAc(b1-3)Gal(b1-4)GlcNAc(b1-6)[Gal(b1-3)]GalNAc
# Outline: as §1
# [18] = target: Gal(b1-4)GlcNAc(b1-3)Gal(b1-4)[Fuc(a1-3)]GlcNAc(b1-3)Gal(b1-4)[Fuc(a1-3)]GlcNAc
# Outline: as §1
binder,measurement,setting,value
B1,glycan array binding signal (z-score),[1],0.331
same,glycan array binding signal (z-score),[2],0.748
same,glycan array binding signal (z-score),[3],1.98
same,glycan array binding signal (z-score),[4],-0.199
same,glycan array binding signal (z-score),[5],2.67
same,glycan array binding signal (z-score),[6],0.054
same,glycan array binding signal (z-score),[7],1.94
same,glycan array binding signal (z-score),[8],-0.077
same,glycan array binding signal (z-score),[9],0.911
same,glycan array binding signal (z-score),[10],0.458
same,glycan array binding signal (z-score),[11],0.572
same,glycan array binding signal (z-score),[12],-0.755
same,glycan array binding signal (z-score),[13],-0.485
same,glycan array binding signal (z-score),[14],0.763
same,glycan array binding signal (z-score),[15],1.23
same,glycan array binding signal (z-score),[16],1.08
same,glycan array binding signal (z-score),[17],1.77
same,glycan array binding signal (z-score),[18],-0.291

# 2 entries picked at random from the list so far, as already listed:
binder,measurement,setting,value
B1,glycan array binding signal (z-score),[13],-0.485
same,glycan array binding signal (z-score),[10],0.458

# Source: the supplement of paper PMC8728848
